The record followed here is publication PMC6342928.

Amino acid sequences for entries named in this document (tags omitted). Residues count along the entry.
UniProt P56703, residues 22-355: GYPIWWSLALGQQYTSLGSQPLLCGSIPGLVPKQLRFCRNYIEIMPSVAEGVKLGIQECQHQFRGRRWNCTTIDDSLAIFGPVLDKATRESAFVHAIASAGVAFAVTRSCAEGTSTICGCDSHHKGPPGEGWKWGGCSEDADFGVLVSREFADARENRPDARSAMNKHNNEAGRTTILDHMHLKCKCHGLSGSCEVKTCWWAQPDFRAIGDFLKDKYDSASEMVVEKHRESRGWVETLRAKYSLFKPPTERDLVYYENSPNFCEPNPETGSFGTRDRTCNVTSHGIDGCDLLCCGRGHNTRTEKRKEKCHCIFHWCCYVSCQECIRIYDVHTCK
UniProt O75787, residues 17-350: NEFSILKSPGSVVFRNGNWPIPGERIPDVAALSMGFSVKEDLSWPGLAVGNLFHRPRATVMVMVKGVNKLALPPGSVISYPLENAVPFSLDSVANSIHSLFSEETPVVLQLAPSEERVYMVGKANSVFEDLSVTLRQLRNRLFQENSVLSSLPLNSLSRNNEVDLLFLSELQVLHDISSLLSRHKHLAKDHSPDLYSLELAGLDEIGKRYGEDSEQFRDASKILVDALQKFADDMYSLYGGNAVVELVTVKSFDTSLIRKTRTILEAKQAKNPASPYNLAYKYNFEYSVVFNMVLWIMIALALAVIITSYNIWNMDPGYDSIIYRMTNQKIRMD

These are yes or no findings as the source states them, for the method shown. Binding seen in cells or lysates may run through a third protein.

The test deals with Wnt3 (human (endogenous in DLD-1)) (UniProt P56703). As to the kind of experiment: co-IP; Wnt3 immunoprecipitated from whole lysates of DLD-1 cells, immunoblot with (P)RR antibody; the protocol is only cited (ref. 31).

On to “(Pro)renin receptor (from UniProt O75787 17-350)”, for which the binding entry is reported as “no binding”.
